Test results published in paper PMC11342095.

T1: Sei1-TurboID-HA (budding yeast) (UniProt Q06058)
T1 sequence: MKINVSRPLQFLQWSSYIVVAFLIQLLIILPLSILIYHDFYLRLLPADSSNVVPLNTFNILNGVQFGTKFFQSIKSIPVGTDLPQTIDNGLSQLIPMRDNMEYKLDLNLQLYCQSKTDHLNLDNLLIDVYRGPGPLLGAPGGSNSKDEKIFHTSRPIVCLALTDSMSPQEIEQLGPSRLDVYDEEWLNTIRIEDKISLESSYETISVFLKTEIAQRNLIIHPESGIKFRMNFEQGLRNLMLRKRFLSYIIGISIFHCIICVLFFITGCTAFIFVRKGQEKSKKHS

T2: Ldb16-TurboID-HA (budding yeast) (UniProt P25587)
T2 sequence: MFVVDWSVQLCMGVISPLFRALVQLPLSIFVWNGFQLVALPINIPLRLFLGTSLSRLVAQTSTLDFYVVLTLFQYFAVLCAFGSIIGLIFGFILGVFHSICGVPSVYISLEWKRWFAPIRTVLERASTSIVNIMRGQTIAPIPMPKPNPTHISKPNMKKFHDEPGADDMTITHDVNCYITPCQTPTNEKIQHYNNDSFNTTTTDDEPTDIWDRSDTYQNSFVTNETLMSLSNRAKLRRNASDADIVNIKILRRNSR

T3: Ldo16-TurboID-HA (budding yeast) (UniProt P40219)
T3 sequence: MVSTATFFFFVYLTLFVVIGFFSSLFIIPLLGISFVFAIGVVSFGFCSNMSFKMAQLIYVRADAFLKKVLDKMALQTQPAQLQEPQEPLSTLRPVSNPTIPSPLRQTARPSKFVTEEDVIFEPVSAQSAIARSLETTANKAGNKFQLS

T4: Ldo45-TurboID-HA (budding yeast) (UniProt P40218)
T4 sequence: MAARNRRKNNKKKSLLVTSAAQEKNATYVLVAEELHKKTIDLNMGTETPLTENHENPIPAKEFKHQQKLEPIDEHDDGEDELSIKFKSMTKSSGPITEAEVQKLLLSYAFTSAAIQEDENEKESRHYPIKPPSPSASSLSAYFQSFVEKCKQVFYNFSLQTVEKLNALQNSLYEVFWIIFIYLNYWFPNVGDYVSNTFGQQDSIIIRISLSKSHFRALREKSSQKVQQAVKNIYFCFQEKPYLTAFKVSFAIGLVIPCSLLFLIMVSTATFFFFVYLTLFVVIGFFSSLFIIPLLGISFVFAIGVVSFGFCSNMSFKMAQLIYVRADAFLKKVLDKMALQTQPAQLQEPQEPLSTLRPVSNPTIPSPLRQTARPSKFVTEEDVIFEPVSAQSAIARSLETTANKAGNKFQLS


How the values were obtained:
[1] = molecular target: T1, Sei1-TurboID-HA (budding yeast); test: proximity labelling; TurboID labelling 'in our studies'; which read-out (Strp-HRP blot, Strp pull-down with Western blot or mass spectrometry) is not told
[2] = molecular target: T2, Ldb16-TurboID-HA (budding yeast); test: as above
[3] = molecular target: T3, Ldo16-TurboID-HA (budding yeast); test: proximity labelling; TurboID labelling in living yeast (arc1Δ background; for Ldo45/16-TurboID-HA also in tgl4Δ, pln1Δ, sei1Δ, ldb16Δ and pex30Δ cells), 50 μM biotin, 6 h, 30 °C; whole-cell extracts blotted with Strp-HRP; bands identified by the size shift of PA-tagged candidates and their loss on deletion
[4] = molecular target: T4, Ldo45-TurboID-HA (budding yeast); test: as above
[5] = molecular target: T2, Ldb16-TurboID-HA (budding yeast); test: as above
[6] = molecular target: T2, Ldb16-TurboID-HA (budding yeast); test: proximity labelling; TurboID labelling in the LD-induction system: 3Δ PGAL-LRO1 and 4Δ strains shifted to raffinose or galactose medium with 50 μM biotin, 3 h, 30 °C; Strp pull-down and Western blot

binding [1]	binding [2]	binding [3]	binding [4]	binding [5]	Binder	further results
no binding	no binding				Pex30 (protein, UniProt Q06169 1-523) MSGNTTNVHETRAKFAETLQPRIGGNTTKVIRAALEKNEAESGVSEDNDNGSLEKVNVATSPLLTSTPPTISKALVKLYPYLILIDEFLNVVTWTGKNIWSSVLMLCLFITTVEYFETLVKYFGHLAIIAILWGYSLLDNYIEGTLSSSPTLEDIALLMNRVSLKSDILLSPMVNLGTQDIQRLLYTTVILSPIYVMITWLLLPPRSLMLMVGMFLLTYHSPWSKVARRLLWKFKIVRLLVFYVTGLDLGGINKDQGIFATVQKQVKKLASTENSNGVLSDSKPIRFTYVLYENQRRWLGIGWKPSMLSYERTPWTDEFLNEAPSPENFHLPEETNTMVWRWVDKTWRLDMTNDGAIQVPNSKARTSADPSPDEGFIYYDNTWKKPSKEDSFSKYTRRRRWVRTAELVKTSDFDESVINSNRNSAIEQKVEENSTNGLTAEQELGSNKQEKDNAKKVGEPTTEETKEFAEASNINEGEFERISSTDEEVLKSRARDRLAKVLDDTEEKEQSNPTIGRDSKKAV	
				binds	Ldo45-PA (protein, UniProt P40218 1-412) MAARNRRKNNKKKSLLVTSAAQEKNATYVLVAEELHKKTIDLNMGTETPLTENHENPIPAKEFKHQQKLEPIDEHDDGEDELSIKFKSMTKSSGPITEAEVQKLLLSYAFTSAAIQEDENEKESRHYPIKPPSPSASSLSAYFQSFVEKCKQVFYNFSLQTVEKLNALQNSLYEVFWIIFIYLNYWFPNVGDYVSNTFGQQDSIIIRISLSKSHFRALREKSSQKVQQAVKNIYFCFQEKPYLTAFKVSFAIGLVIPCSLLFLIMVSTATFFFFVYLTLFVVIGFFSSLFIIPLLGISFVFAIGVVSFGFCSNMSFKMAQLIYVRADAFLKKVLDKMALQTQPAQLQEPQEPLSTLRPVSNPTIPSPLRQTARPSKFVTEEDVIFEPVSAQSAIARSLETTANKAGNKFQLS	
				binds	Ldo45 (protein, UniProt P40218 1-412) MAARNRRKNNKKKSLLVTSAAQEKNATYVLVAEELHKKTIDLNMGTETPLTENHENPIPAKEFKHQQKLEPIDEHDDGEDELSIKFKSMTKSSGPITEAEVQKLLLSYAFTSAAIQEDENEKESRHYPIKPPSPSASSLSAYFQSFVEKCKQVFYNFSLQTVEKLNALQNSLYEVFWIIFIYLNYWFPNVGDYVSNTFGQQDSIIIRISLSKSHFRALREKSSQKVQQAVKNIYFCFQEKPYLTAFKVSFAIGLVIPCSLLFLIMVSTATFFFFVYLTLFVVIGFFSSLFIIPLLGISFVFAIGVVSFGFCSNMSFKMAQLIYVRADAFLKKVLDKMALQTQPAQLQEPQEPLSTLRPVSNPTIPSPLRQTARPSKFVTEEDVIFEPVSAQSAIARSLETTANKAGNKFQLS	binding [6]: binds

The remaining lines, values behind:

Binder	binding [1]	binding [2]	binding [3]	binding [4]	binding [5]	further results
Pln1 (protein, UniProt P36139 1-283) MSESSISSSKPSVELPQATWSHLQRYPALSKFIKYAESLPPVERLISFNLVVLGSVNQWVSESSSSPRLVKQVVAAGKEGAFKLDELVNLLVFKEGVDGLLYNWKSHSNTPGIWLVWFFVDYVANISNTLLREFLIKPLHLQGSTASKEIGSSGEENKVTDASSLPHVAELSSTTRGMSQEIQSKVKSNYIDPTKDLAKEKYDAIVKPTTDKLQSVYIDPTKTKLNETYQRFTTVYENNLSKSESVPKAIVSTGLDLGNATIEKLKASREDQTNSKPAAVSTN			binds	binds		
Erg6 (protein, UniProt P25087 1-383) MSETELRKRQAQFTRELHGDDIGKKTGLSALMSKNNSAQKEAVQKYLRNWDGRTDKDAEERRLEDYNEATHSYYNVVTDFYEYGWGSSFHFSRFYKGESFAASIARHEHYLAYKAGIQRGDLVLDVGCGVGGPAREIARFTGCNVIGLNNNDYQIAKAKYYAKKYNLSDQMDFVKGDFMKMDFEENTFDKVYAIEATCHAPKLEGVYSEIYKVLKPGGTFAVYEWVMTDKYDENNPEHRKIAYEIELGDGIPKMFHVDVARKALKNCGFEVLVSEDLADNDDEIPWYYPLTGEWKYVQNLANLATFFRTSYLGRQFTTAMVTVMEKLGLAPEGSKEVTAALENAAVGLVAGGKSKLFTPMMLFVARKPENAETPSQTSQEATQ	no binding	no binding				
Tgl4 (protein, UniProt P36165 1-910) MSSKISDLTSTQNKPLLVTQQLIEKYYEQILGTSQNIIPILNPKNKFIRPSKDNSDVERVEEDAGKRLQTGKNKTTNKVNFNLDTGNEDKLDDDQETVTENENNDIEMVETDEGEDERQGSSLASKCKSFLYNVFVGNYERDILIDKVCSQKQHAMSFEEWCSAGARLDDLTGKTEWKQKLESPLYDYKLIKDLTSRMREERLNRNYAQLLYIIRTNWVRNLGNMGNVNLYRHSHVGTKYLIDEYMMESRLALESLMESDLDDSYLLGILQQTRRNIGRTALVLSGGGTFGLFHIGVLGTLFELDLLPRVISGSSAGAIVASILSVHHKEEIPVLLNHILDKEFNIFKDDKQKSESENLLIKISRFFKNGTWFDNKHLVNTMIEFLGDLTFREAYNRTGKILNITVSPASLFEQPRLLNNLTAPNVLIWSAVCASCSLPGIFPSSPLYEKDPKTGERKPWTGSSSVKFVDGSVDNDLPISRLSEMFNVDHIIACQVNIHVFPFLKLSLSCVGGEIEDEFSARLKQNLSSIYNFMANEAIHILEIGSEMGIAKNALTKLRSVLSQQYSGDITILPDMCMLFRIKELLSNPTKEFLLREITNGAKATWPKVSIIQNHCGQEFALDKAISYIKGRMIVTSSLKTPFQFADSVIGLIKAPEQTSDESKNPENSTLLTRTPTKGDNHISNVLDDNLLESESTNSLLLLRENASTYGRSPSGFRPRYSITSASLNPRHQRRKSDTISTSRRPAKSFSFSVASPTSRMLRQSSKINGHPPPILQKKTSMGRLMFPMDAKTYDPESHELIPHSASIETPAMVDKKLHFGRKSRYLRHMNKKWVSSSNILYTDSDKEDHPTLRLISNFDSDAMIHSDLAGNFRRHSIDGRPPSQATKSSPFRSRPSSSTQHKSTTSFTQ			binds	binds		

Results are given in words; binding and its absence hold for the method and conditions named. In cells and extracts the contact can be indirect. These calls come from enrichment with a bait or labelling near it, and not all partners need be listed. For some assays here: No binding means not detected with the bait. Tags and fused reporters may be left off the sequences shown.
